Laboratory results reported in article doi:10.1101/243014.
These are yes or no findings as the source states them, for the method shown. In cells and extracts the contact can be indirect. For some assays here: A result given as binding can be weak or reduced; the word gives no strength. For some assays here: Tags and fused reporters may be left off the sequences shown.

Amino acid sequences for entries named in this document (tags omitted). A change or cut given only in a name is not applied to a line headed by its entry.
UniProt P49756: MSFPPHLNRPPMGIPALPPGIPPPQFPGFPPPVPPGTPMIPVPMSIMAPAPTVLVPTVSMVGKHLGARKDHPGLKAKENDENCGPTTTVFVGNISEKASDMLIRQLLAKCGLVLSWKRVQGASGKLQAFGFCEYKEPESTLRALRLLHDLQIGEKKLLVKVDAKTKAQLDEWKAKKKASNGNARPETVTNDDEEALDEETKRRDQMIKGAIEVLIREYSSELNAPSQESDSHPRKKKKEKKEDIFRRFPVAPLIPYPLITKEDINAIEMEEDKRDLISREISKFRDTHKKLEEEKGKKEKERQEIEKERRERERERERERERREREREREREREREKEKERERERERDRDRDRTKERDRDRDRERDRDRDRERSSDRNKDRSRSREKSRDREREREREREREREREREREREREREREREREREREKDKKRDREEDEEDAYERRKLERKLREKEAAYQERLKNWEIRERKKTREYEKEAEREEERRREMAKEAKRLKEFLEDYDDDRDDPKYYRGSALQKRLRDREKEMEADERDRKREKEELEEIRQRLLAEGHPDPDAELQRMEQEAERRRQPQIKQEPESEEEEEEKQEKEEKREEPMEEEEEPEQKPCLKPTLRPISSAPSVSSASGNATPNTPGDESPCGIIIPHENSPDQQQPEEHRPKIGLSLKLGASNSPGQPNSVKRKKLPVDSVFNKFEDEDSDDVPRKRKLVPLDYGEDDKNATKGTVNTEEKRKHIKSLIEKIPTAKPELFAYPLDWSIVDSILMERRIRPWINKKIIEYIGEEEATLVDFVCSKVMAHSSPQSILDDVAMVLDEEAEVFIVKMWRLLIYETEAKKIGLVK
UniProt P08621: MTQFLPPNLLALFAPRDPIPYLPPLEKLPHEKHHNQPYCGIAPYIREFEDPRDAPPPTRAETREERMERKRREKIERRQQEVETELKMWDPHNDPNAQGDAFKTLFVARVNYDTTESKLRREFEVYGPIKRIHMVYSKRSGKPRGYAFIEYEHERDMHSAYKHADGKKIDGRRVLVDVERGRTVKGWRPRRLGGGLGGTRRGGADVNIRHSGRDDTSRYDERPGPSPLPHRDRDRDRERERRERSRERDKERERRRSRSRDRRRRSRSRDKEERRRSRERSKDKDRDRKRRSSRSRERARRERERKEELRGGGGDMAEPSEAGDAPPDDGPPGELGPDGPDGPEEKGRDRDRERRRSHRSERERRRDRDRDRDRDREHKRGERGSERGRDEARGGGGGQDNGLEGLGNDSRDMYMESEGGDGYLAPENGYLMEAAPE

B1: endogenous LUC7L3 (protein, UniProt O95232 1-432)
chain: MISAAQLLDELMGRDRNLAPDEKRSNVRWDHESVCKYYLCGFCPAELFTNTRSDLGPCEKIHDENLRKQYEKSSRFMKVGYERDFLRYLQSLLAEVERRIRRGHARLALSQNQQSSGAAGPTGKNEEKIQVLTDKIDVLLQQIEELGSEGKVEEAQGMMKLVEQLKEERELLRSTTSTIESFAAQEKQMEVCEVCGAFLIVGDAQSRVDDHLMGKQHMGYAKIKATVEELKEKLRKRTEEPDRDERLKKEKQEREEREKEREREREERERKRRREEEEREKERARDRERRKRSRSRSRHSSRTSDRRCSRSRDHKRSRSRERRRSRSRDRRRSRSHDRSERKHRSRSRDRRRSKSRDRKSYKHRSKSRDREQDRKSKEKEKRGSDDKKSSVKSGSREKQSEDTNTESKESDTKNEVNGTSEDIKSEGDTQSN

Legend:
Assay in all cases: co-IP
rRBM25-ΔMC = rRBM25-ΔMC (UniProt P49756)
rLUC7L3-ΔMC = rLUC7L3-ΔMC (UniProt O95232)
[1] = target: rLUC7L3 mixed charge (MC) domain alone
[2] = target: rRBM25 mixed charge (MC) domain alone

Molecule	binding (rRBM25-ΔMC)	binding (rLUC7L3-ΔMC)	binding [1]	binding [2]
endogenous U1-70K (from UniProt P08621 1-437)	no binding	no binding	–	–
B1	no binding	–	binds	no binding
